# In patent US4954637A, “Certain maleimide-N-alkylenecarboxylate-ortho-nitrobenzenesulfonic acid esters and derivatives useful for coupling biological materials” (Cetus Corporation, priority 1987, dated 1990):
# Test system: avidin
# Settings: in 30 minutes; 27 amino groups per avidin
smiles,measurement,value
"O=C(CCCCCN1C(=O)C=CC1=O)Oc1ccc(S(=O)(=O)O)cc1[N+](=O)[O-] [mal-sac-HNSA, N-maleimido-6-aminocaproylHNSA]",amino groups of avidin reacted with the ester,13.5 amino groups
